## Screening data, single-dose tests

Data taken from ChEMBL document CHEMBL3988442, “University of Dundee, Small-Polar-MMV Screening Library” (2021).

Mtb cholesterol medium: 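Growth of Mycobacterium tuberculosis over 4 days (cholesterol / DPPC medium with tyloxapol); the read-out is not stated. Tested at 500 µM. Higher reads as more growth inhibition (inferred: compounds with an IC50 in retests scored well above the rest). Of about 18,000 compounds tested this way, about 900 (5%) reached 50% or more in at least one test.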
Mtb glucose medium: 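Phenotypic screen: M. tuberculosis growth, glucose 7H9 medium, 3 days; the read-out is not stated. Compounds at 500 µM. Direction is inferred from retests: higher values go with more growth inhibition. Of about 18,000 compounds tested this way, about 1,400 (7.9%) reached 50% or more in at least one test.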

Results are given as percent effect. How 0% and 100% were set is not recorded. Most values in the screen are low, and negative values occur. The compounds are a random part of those screened.

| # | Compound | Mtb cholesterol medium | Mtb glucose medium |
|---|---|---|---|
| 1 | `CC(C)(C)C(=O)NCC1CCCNC1` (centres unmarked) | -11.24 | -16.49 |
| 2 | `CCc1cnccc1C(=O)NCCc1cncn1C` | 1.318 | -1.208 |
| 3 | `Cc1ccc(F)cc1C(=O)NC1CCCNC1` (centres unmarked) | -19.94 | -19.92 |
| 4 | `NCc1ccc(CN2CCC(C(N)=O)CC2)cc1` | -4.212 | -9.166 |
| 5 | `CC(=O)c1ccc(OCCN2CCN(C)CC2)cc1` | 1.073 | 5.986 |
| 6 | `CC(=O)NCCCNCc1cccc(C#N)c1` | 44.33 | 53.94 |
| 7 | `CC(C)CC(CN)CCO` (centres unmarked) | 2.377 | 9.865 |
| 8 | `CCOCCn1ccnc1S(C)(=O)=O` | -2.725 | 6.29 |
| 9 | `O=C(Nc1ccn(-c2ccccc2)n1)C1CCCO1` (centres unmarked) | 17.86 | 33.83 |
| 10 | `CCn1cc([C@@H]2NC(=O)CC[C@H]2N)cn1` | -3.244 | 6.14 |
| 11 | `COc1ccc(OC)c(NC(=O)CCN2CCCC2)c1` | 21.64 | 23.54 |
| 12 | `CN(C)c1cccc(NC(=O)c2cc(Cl)ccn2)n1` | -13.86 | -7.074 |
| 13 | `NCC1CCC(=O)N1` (centres unmarked) | -1.896 | -0.2544 |
| 14 | `Cc1ccc(C)c(CC(=O)N(C)Cc2ncnn2C)c1` | 3.914 | 17.33 |
| 15 | `Cn1cc(CCC(=O)N2C[C@H](C3CC3)[C@@H](N)C2)cn1` | -5.152 | -8.918 |
| 16 | `CCN(CCC#N)C(=O)CSc1cnn[nH]1` | -17.33 | -8.789 |
| 17 | `CC(C)N1CCC(NC(=O)Nc2ccccn2)C1` (centres unmarked) | -8.004 | 2.792 |
| 18 | `CN(C)[C@@H]1CN(C(=O)c2nccn2C)C[C@H]1CO` | -0.4501 | -11.3 |
| 19 | `Cc1nc(CC2CCCNC2)no1` (centres unmarked) | 3.004 | 4.531 |
| 20 | `CNCC(C)(CO)CO` | -9.198 | -0.1 |
| 21 | `CC=Cc1ccc(OCC(N)=O)c(OC)c1` | -16.57 | 25.98 |
| 22 | `Cc1cc(NC(=O)CN2CCCC(C)C2)n(C)n1` (centres unmarked) | -1.491 | 4.02 |
| 23 | `CCC(N)c1cccc(OC)c1OC` (centres unmarked) | -2.237 | 2.13 |
| 24 | `OCC(O)CSCc1c(Cl)ccc2cccnc12` (centres unmarked) | -19.04 | 18.78 |
| 25 | `Cc1cccnc1NC(=O)COc1c(O)ccnc1C` | -5.544 | -6.441 |
| 26 | `OCC1(Cc2ccccc2)CCNC1` (centres unmarked) | -0.09127 | 11.38 |
| 27 | `CS(=O)(=O)NCC(=O)N1CCCC1C1CCCC1` (centres unmarked) | 25.69 | 30.43 |
| 28 | `CCOC(CO)C1CC1` (centres unmarked) | -3.417 | -11.79 |
| 29 | `NCCC(=O)N1CCCC1Cc1cccc(F)c1` (centres unmarked) | -4.259 | 3.489 |
| 30 | `COCCCN1CCCN(C(=O)c2sccc2C)CC1` | -2.619 | 16.32 |
| 31 | `COc1cc(Br)ccc1CCCNC(=O)C(C)O` (centres unmarked) | 30.61 | 38.67 |
| 32 | `CCC(CO)(CO)NC(=O)c1csc(C(C)C)n1` | -1.744 | 18.59 |
| 33 | `NC(=O)c1ncccc1CO` | -31.5 | -7.971 |
| 34 | `CN(C)C(=O)CN(c1ccc(Cl)cc1Cl)S(C)(=O)=O` | 2.065 | 12.56 |
| 35 | `CCc1oc(C(=O)NC(COC)C(N)=O)cc1C` (centres unmarked) | -3.467 | -7.847 |
| 36 | `COc1ccc(-c2cncc(N)c2)cc1CO` | -132.1 | -131.3 |
| 37 | `CN(C)C(=O)N1CCN(CC2CCCCO2)CC1` (centres unmarked) | 12.16 | 11.11 |
| 38 | `COC(=O)c1cnc(F)cn1` | -3.787 | 5.714 |
| 39 | `CCNC(=O)CN(c1ccc(Cl)cc1C)S(C)(=O)=O` | 8.604 | 23.99 |
| 40 | `CN(CCNS(C)(=O)=O)c1ncccn1` | 2.416 | 9.644 |
| 41 | `NCc1nc(-c2ccsc2)no1` | 12.67 | 1.023 |
| 42 | `CCOCCn1c(C)nn(C(C)(C)C)c1=O` | 8.056 | 5.139 |
| 43 | `N[C@H]1[C@@H]2CC[C@H]1CN(CCn1cc(Cl)cn1)C2` | 13.9 | 21.67 |
| 44 | `COc1ccc(NC(=O)NCC(C)N2CCCC2)cn1` (centres unmarked) | -83.97 | -102.6 |
| 45 | `COC(=O)N1CCNCC1` | -10.69 | 10.26 |
| 46 | `COc1ccc(NC(=O)C(C)n2cncn2)cc1F` (centres unmarked) | 22.7 | 33.87 |
| 47 | `Cc1n[nH]c(C)c1CNCC(=O)N1CCCC1` | -4.428 | -1.099 |
| 48 | `Cc1nnc(SC(C)C(=O)NC2=NCCS2)s1` (centres unmarked) | 17.11 | 21.37 |
| 49 | `CC(C)c1cc(C(=O)N2CC[C@H]3CC[C@@H](C2)N3)no1` | 11.22 | 25.31 |
| 50 | `N#Cc1c(F)cccc1NCC1(O)CCS(=O)(=O)CC1` | 10.7 | 9.687 |
| 51 | `CNCCNC(C)=O` | -22.75 | -14.5 |

Repeated from the top, 3 entries:

Result for CC(C)(C)C(=O)NCC1CCCNC1 (centres unmarked) was Mtb cholesterol medium: -11.24%; Mtb glucose medium: -16.49%.
Result for CCc1cnccc1C(=O)NCCc1cncn1C was Mtb cholesterol medium: 1.318%; Mtb glucose medium: -1.208%.
Result for Cc1ccc(F)cc1C(=O)NC1CCCNC1 (centres unmarked) was Mtb cholesterol medium: -19.94%; Mtb glucose medium: -19.92%.